Data as given in PMC9176654.
Results are given in words; binding and its absence hold for the method and conditions named. In cells and extracts the contact can be indirect. A yes stands for co-enrichment or nearness to the bait. Other partners may have been found.

Target: NSP13 (SARS-CoV-2) (UniProt P0DTD1)
Assay: two-hybrid + affinity purification with mass spectrometry

Which binding does the source give for PDE4DIP (from UniProt Q5VU43 1-2346) here?
The binding was “binds”.
